{
  "source": "paper PMC9569420",
  "about": "(Communications Biology, 2022)",
  "test_system": "Akt (pAkt T308) in HaCat cells",
  "assay": "Akt phosphorylation in response to insulin (confocal)",
  "format": "cell-based, human",
  "conditions": "insulin 10 μM, permeabilized cells",
  "data": [
    {"smiles": "CN[C@@H]1C[C@H]2O[C@@](C)([C@@H]1OC)n1c3ccccc3c3c4c(c5c6ccccc6n2c5c31)C(=O)NC4", "note": "[Staurosporine, reference compound]", "values": [
      {"measurement": "lowest dose inhibiting intracellular Akt phosphorylation", "result": 0.1, "unit": "µM"}
    ]}
  ]
}
